No constants are given. Whether binding was seen depends on the method and setting. In cells and extracts the contact can be indirect. Here binding means that the protein was enriched with, or labelled near, the bait; the list need not be complete. For some of these results: A no says only that the protein was not detected with the bait. For some of these results: Tags and fused reporters may be left off the sequences shown.
Assays:
MBP-B55β (Xenopus) = target: T1, MBP-B55β (Xenopus) (UniProt A1L3L9); test: affinity purification with mass spectrometry; about 10 μg MBP-B55 on amylose beads (20 μl) incubated in interphase Xenopus egg extracts (40 μl), 30 min, room temperature; beads washed, eluted, SDS-PAGE, mass spectrometry; control beads without protein; proteins with a single peptide removed; only the target purified
T1 sequence: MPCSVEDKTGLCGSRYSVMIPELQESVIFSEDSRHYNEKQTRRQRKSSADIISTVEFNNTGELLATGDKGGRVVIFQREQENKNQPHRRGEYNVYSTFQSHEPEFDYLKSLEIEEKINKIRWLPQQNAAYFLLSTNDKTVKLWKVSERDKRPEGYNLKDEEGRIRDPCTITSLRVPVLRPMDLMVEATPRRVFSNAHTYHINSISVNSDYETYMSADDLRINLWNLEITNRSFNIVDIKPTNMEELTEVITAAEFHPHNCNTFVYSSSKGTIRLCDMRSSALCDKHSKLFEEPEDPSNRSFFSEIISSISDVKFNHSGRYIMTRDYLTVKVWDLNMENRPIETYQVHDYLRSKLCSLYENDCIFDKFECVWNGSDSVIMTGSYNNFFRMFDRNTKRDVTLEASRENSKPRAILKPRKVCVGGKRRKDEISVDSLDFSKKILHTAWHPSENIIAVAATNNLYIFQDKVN

By UniProt entry, the sequences of proteins in these tests, tags left out.
UniProt P50533: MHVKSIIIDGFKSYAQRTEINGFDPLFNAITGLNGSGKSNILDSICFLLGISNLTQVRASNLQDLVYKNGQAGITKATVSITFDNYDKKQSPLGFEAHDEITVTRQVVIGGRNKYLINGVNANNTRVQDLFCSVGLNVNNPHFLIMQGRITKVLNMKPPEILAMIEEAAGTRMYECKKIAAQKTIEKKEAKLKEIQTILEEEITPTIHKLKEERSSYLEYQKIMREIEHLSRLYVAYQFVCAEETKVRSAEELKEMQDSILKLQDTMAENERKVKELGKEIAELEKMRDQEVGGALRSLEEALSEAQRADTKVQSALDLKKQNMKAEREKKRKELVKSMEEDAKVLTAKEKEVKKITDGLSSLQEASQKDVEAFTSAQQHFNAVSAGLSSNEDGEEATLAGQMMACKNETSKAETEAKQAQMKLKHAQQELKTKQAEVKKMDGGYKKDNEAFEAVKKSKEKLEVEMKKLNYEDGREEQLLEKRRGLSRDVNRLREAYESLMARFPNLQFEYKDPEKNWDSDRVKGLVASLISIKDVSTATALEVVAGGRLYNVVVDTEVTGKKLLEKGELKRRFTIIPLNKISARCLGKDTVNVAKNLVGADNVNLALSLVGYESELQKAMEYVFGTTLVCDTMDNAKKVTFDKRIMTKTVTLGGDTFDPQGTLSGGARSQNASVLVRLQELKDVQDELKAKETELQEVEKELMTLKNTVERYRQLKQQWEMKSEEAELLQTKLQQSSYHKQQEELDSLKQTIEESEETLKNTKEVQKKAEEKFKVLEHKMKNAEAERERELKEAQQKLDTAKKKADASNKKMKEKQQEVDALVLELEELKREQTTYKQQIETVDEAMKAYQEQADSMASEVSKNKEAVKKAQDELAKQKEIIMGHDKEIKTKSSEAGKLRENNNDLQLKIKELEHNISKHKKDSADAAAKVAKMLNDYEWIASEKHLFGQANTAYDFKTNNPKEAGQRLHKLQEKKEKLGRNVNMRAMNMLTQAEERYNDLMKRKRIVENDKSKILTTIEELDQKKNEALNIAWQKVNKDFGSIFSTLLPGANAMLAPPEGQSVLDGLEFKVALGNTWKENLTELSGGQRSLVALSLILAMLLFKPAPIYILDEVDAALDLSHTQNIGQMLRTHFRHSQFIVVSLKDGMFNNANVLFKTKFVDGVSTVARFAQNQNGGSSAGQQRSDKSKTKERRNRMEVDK
UniProt Q01588: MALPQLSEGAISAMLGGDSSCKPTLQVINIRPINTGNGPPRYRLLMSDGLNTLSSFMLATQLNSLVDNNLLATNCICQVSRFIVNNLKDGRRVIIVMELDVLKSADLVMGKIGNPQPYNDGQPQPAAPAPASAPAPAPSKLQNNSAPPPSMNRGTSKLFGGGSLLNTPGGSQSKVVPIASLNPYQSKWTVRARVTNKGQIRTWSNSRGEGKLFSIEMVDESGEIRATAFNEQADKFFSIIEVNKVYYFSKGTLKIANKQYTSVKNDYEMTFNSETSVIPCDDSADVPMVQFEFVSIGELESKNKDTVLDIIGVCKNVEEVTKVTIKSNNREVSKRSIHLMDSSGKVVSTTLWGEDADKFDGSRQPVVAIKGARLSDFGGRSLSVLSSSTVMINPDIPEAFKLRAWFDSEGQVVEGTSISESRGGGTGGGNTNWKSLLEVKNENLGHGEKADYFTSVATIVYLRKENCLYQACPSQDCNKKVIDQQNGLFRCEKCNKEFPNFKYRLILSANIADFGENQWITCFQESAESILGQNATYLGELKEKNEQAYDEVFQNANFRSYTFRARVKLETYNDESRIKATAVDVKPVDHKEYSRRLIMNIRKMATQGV
UniProt Q6NTJ3: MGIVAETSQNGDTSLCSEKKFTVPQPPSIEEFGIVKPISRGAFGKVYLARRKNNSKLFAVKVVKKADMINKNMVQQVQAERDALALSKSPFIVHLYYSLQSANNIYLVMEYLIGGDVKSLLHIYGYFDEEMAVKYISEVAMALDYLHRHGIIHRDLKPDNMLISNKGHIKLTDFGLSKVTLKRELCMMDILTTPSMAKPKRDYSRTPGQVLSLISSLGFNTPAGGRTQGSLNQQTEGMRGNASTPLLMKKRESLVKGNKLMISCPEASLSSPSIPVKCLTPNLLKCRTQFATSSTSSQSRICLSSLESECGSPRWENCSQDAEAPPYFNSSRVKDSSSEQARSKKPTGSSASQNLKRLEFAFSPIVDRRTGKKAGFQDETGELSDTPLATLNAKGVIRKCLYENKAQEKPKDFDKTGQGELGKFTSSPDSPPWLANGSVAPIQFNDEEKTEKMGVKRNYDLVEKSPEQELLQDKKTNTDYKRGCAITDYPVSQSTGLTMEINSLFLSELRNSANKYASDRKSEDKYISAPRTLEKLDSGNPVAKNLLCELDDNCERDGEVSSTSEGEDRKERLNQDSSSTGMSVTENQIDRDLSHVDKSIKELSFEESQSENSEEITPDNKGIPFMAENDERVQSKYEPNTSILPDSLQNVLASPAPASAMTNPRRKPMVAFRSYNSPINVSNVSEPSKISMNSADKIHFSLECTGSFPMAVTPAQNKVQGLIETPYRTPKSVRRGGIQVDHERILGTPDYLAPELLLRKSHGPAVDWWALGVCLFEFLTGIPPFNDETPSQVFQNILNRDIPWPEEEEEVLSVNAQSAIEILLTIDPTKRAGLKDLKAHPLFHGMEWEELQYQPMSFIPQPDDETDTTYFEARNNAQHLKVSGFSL
UniProt P70032: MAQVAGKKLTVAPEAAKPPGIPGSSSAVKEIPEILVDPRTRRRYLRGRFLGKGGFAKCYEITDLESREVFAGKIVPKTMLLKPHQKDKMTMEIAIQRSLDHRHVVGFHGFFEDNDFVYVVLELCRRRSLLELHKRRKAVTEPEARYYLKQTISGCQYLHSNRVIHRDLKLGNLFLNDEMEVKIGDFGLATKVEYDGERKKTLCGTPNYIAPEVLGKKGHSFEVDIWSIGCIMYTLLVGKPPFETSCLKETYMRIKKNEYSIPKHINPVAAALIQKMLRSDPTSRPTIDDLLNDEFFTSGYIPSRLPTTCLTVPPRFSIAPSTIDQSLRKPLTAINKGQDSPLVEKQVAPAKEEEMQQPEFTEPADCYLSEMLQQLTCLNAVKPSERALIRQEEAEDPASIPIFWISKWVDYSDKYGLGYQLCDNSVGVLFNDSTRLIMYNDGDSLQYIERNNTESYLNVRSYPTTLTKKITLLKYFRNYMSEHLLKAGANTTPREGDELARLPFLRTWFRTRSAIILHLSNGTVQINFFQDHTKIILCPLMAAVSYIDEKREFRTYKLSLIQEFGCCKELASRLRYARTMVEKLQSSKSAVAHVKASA

MBP-B55α (Xenopus) = MBP-B55α (Xenopus) (UniProt Q6IRD3); test: as above

binding (MBP-B55β (Xenopus)) | binding (MBP-B55α (Xenopus)) | Substance
binds |  | Aurora-B (Xenopus (endogenous in egg extracts)) (enzyme)
binds | no binding | Condensin subunit Smc2 (from UniProt P50533 1-1203)
binds | binds | RPA1 (from UniProt Q01588 1-609)
 | binds | mitotic kinase Mastl (from UniProt Q6NTJ3 1-887) (enzyme)
 | binds | mitotic kinase Plk1 (from UniProt P70032 1-598) (enzyme)

Source: paper PMC5805732
